Source: patent US20150018383A1, “BIOMARKERS OF RENAL DISORDERS” (Institut National de la Sante et de la Recherche Medicale …, priority 2011, published 2015)
Entries after “also recorded” stand apart in the source; their conditions may differ. At least one compound was matched to its structure with a doubt left.

Tested on: P-Akt (Ser^473) in podocytes
Assay: Glomerular immunostaining of P-AKT (Ser473) in kidney transplant biopsies
Assay type: in vivo, human

CO[C@H]1C[C@@H]2CC[C@@H](C)[C@@](O)(O2)C(=O)C(=O)N2CCCC[C@H]2C(=O)O[C@H]([C@H](C)C[C@@H]2CC[C@@H](O)[C@H](OC)C2)CC(=O)[C@H](C)/C=C(\C)[C@@H](O)[C@@H](OC)C(=O)[C@H](C)C[C@H](C)/C=C/C=C/C=C/1C [sirolimus]
P-Akt (Ser473) immunostaining in serial biopsies (patient 1, on sirolimus administration): blunts Akt phosphorylation; also recorded: decreased Akt phosphorylation | P-Akt (Ser473) immunostaining in serial biopsies (patient 2, after removal of sirolimus): restores Akt phosphorylation; also recorded: restored the phosphorylation of Akt | Akt phosphorylation (P-AKT Ser473 staining) in podocytes (renal transplant recipients with lower eGFR (impaired renal function, severe nephron reduction), sirolimus-treated versus not treated): completely blunted such activation; also recorded: prevented the activation of Akt; also recorded: decreased the phosphorylation of Akt2
